Some of the results follow. Hit calls seldom repeat between salt and free forms of one compound.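 In K562 cells expressing nanoluciferase-fused kinases, luminescence was recorded at 4 h intervals between 2 and 18 h, normalized as percent of control with DMSO at 100% and a positive control at 0%. A significant (2 sigma) signal drop marks a time point as decreased. The authors' rule for a hit is not shown and takes in more than the number of time points.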
Legend:
Assay in all cases: kinase-Nluc reporter destabilization hit call (1 = scored as downregulated) (binary); higher = compound decreases kinase abundance
Settings in all cases: K562, 2-18 h
IRAK3 = IRAK3 (UniProt Q9Y616)
JAK1 = JAK1 (UniProt P23458)
LCK = LCK (UniProt P06239)
LIMK1 = LIMK1 (UniProt P53667)
LIMK2 = LIMK2 (UniProt P53671)
LMTK2 = LMTK2 (UniProt Q8IWU2)
LYN = LYN (UniProt P07948)
MAP2K1 = MAP2K1 (UniProt Q02750)
MAP2K2 = MAP2K2 (UniProt P36507)
MAP4K2 = MAP4K2 (UniProt Q12851)

Amino acid sequences for entries named in this document (tags omitted). A change or cut given only in a name is not applied to a line headed by its entry.
UniProt Q9Y616: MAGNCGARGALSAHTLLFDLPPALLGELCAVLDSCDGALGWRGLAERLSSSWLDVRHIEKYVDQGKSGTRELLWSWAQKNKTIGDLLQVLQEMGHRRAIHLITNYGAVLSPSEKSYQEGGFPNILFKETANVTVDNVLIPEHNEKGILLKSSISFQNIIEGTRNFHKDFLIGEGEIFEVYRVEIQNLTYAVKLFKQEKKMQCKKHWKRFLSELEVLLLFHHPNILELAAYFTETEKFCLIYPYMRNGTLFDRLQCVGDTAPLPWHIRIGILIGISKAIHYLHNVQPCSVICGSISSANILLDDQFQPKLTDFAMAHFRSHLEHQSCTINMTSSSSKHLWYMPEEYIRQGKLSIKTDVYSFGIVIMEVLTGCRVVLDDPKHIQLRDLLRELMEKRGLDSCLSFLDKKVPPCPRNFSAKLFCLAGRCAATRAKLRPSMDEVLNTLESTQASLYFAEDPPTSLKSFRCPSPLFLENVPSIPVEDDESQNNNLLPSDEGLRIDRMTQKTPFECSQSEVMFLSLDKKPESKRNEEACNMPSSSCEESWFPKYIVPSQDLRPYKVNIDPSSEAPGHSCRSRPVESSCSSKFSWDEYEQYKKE
UniProt P23458: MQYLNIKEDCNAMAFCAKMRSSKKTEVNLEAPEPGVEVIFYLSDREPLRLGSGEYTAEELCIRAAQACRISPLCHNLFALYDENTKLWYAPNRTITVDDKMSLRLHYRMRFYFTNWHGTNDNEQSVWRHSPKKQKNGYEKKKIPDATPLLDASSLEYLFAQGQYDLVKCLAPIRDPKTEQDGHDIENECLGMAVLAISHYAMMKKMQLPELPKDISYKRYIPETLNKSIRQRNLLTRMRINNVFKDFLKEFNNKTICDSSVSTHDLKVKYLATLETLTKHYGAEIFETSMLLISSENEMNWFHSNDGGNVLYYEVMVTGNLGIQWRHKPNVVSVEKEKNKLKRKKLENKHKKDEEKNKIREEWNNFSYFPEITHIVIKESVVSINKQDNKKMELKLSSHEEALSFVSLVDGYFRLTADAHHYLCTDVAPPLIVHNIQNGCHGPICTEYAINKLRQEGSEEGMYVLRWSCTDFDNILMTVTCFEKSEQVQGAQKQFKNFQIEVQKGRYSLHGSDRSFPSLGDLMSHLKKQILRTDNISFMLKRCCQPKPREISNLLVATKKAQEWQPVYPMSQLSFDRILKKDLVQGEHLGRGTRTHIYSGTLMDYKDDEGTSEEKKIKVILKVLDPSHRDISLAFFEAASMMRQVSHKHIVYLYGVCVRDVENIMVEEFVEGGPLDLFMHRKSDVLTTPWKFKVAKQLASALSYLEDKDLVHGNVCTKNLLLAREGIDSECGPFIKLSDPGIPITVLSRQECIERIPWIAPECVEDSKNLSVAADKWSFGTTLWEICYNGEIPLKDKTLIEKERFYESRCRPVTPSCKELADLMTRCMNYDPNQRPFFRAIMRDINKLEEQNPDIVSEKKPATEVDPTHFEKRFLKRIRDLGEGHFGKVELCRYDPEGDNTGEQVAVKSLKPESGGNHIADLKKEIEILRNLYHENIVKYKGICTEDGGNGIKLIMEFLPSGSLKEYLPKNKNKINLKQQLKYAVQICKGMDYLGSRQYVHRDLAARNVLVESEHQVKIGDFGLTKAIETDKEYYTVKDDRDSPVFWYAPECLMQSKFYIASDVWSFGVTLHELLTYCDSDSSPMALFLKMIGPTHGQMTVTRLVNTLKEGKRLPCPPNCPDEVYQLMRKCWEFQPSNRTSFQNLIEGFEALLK
UniProt P06239: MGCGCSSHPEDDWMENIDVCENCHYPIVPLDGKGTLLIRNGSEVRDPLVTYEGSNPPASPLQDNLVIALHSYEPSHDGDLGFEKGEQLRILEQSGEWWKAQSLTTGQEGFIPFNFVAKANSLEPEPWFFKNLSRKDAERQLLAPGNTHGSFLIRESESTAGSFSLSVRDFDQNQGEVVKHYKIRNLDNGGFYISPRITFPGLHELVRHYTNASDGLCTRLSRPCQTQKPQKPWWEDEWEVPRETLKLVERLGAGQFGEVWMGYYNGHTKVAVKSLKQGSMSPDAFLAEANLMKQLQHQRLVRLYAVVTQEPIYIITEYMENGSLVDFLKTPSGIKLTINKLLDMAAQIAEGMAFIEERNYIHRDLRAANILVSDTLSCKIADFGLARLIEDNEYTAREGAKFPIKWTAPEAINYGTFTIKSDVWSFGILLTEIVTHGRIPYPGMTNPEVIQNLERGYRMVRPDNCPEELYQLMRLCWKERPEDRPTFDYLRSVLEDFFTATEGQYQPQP
UniProt P53667: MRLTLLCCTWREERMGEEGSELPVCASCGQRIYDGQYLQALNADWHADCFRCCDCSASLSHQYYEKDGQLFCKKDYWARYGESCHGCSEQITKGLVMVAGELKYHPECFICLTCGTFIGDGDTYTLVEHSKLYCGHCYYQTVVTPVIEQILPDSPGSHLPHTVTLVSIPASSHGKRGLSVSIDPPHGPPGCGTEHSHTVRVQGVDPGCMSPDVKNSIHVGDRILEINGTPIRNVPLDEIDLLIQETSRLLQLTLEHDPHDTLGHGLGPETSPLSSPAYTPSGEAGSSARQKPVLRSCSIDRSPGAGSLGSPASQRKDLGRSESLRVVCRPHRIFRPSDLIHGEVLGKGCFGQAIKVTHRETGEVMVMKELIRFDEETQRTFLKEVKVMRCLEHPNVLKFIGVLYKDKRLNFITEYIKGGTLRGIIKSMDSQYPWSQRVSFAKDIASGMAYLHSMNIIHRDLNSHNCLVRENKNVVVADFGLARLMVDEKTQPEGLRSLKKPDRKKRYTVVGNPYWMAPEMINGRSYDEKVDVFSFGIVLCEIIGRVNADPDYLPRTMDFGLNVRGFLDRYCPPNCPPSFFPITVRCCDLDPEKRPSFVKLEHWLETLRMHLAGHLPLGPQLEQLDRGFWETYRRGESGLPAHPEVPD
UniProt P53671: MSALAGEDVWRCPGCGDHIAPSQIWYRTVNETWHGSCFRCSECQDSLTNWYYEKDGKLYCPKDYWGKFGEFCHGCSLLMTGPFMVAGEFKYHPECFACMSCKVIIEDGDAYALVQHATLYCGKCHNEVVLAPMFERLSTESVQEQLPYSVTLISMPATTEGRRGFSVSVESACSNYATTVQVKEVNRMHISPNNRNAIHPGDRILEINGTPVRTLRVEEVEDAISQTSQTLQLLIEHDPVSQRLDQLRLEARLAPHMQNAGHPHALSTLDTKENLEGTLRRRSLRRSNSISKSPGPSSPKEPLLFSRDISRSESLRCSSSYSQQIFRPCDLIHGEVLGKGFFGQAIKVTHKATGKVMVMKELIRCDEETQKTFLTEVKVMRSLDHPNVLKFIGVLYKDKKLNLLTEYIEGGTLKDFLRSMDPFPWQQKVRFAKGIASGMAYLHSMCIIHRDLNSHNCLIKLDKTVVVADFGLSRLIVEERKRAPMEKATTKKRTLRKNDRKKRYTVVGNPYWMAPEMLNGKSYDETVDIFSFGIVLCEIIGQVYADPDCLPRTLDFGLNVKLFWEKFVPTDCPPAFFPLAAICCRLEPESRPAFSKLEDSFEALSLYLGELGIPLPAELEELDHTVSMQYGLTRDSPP
UniProt Q8IWU2: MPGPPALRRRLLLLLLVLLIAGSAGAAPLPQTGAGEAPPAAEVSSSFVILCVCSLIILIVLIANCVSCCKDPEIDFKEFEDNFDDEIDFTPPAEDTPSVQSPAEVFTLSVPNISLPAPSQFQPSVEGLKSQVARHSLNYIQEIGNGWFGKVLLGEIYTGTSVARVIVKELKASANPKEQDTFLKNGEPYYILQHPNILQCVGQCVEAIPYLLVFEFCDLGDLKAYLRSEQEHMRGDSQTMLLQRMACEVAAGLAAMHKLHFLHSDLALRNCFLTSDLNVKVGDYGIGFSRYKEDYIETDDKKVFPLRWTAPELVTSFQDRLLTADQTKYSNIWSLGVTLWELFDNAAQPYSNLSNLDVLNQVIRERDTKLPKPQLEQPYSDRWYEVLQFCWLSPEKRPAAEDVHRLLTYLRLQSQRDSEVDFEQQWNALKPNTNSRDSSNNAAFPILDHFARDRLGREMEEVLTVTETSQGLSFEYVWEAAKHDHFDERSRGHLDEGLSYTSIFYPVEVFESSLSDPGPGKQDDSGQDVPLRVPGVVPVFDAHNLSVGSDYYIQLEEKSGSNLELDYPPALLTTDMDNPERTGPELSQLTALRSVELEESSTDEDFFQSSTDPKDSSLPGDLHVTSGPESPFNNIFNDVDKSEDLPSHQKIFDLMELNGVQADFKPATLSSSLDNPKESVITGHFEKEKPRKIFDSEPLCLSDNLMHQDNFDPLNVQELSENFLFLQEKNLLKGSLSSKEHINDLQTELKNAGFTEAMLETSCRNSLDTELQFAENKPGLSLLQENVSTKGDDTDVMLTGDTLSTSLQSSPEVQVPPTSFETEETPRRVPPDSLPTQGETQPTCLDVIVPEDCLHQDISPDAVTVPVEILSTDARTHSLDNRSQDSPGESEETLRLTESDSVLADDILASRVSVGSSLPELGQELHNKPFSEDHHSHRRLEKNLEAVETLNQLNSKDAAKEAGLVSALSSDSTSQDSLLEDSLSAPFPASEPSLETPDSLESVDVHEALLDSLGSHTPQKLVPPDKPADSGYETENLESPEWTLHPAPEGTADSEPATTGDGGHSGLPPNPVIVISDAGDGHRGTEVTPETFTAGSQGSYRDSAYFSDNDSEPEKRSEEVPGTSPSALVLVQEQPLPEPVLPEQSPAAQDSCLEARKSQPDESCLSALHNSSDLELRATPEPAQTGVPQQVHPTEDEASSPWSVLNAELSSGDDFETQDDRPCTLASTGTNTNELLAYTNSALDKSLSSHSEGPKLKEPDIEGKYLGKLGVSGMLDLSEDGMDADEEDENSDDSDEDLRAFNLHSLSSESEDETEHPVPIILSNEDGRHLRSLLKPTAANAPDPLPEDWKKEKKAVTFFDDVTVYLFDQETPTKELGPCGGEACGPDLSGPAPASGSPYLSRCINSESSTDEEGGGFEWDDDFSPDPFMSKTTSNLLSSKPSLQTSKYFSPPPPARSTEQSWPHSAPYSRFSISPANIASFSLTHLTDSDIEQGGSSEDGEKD
UniProt P07948: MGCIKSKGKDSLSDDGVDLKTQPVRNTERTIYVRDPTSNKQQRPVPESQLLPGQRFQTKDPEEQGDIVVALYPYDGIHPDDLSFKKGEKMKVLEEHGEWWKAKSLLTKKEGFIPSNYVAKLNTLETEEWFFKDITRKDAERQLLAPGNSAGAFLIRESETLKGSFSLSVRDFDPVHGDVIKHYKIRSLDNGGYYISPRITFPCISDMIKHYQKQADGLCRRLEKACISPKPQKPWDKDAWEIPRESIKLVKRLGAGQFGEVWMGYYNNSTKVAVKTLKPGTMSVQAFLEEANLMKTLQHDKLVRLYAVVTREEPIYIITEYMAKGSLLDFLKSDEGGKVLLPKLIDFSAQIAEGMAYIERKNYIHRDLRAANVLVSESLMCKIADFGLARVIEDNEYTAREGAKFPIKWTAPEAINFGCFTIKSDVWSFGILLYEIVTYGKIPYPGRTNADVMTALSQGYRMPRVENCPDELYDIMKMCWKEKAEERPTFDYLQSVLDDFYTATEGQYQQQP
UniProt Q12851: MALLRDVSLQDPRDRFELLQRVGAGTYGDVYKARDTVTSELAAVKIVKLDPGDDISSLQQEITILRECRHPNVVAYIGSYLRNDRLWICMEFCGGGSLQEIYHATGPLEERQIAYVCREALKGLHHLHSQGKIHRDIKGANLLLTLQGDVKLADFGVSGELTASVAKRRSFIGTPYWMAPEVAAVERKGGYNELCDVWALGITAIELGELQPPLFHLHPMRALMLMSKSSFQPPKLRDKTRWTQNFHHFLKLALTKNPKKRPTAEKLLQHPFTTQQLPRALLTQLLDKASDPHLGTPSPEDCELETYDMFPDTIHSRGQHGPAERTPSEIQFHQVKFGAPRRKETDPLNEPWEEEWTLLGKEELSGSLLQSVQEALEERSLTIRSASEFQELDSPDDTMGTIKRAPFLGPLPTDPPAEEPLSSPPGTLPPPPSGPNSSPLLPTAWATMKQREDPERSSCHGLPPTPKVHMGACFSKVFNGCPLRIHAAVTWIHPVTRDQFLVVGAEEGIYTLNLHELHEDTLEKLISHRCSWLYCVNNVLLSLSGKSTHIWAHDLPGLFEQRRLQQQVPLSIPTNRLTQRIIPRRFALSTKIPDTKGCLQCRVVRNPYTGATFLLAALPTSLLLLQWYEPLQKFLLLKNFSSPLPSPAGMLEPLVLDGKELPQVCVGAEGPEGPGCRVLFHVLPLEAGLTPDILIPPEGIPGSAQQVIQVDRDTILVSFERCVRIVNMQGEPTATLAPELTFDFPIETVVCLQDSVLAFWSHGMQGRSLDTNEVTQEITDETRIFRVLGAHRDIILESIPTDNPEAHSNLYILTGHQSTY

Measured: kinase-Nluc reporter destabilization hit call

Nc1nc(Nc2ccc(S(N)(=O)=O)cc2)nn1C(=O)c1c(F)cccc1F
inactive: IRAK3; 2.5 µM 0 | JAK1; 2.5 µM 0 | LCK; 2.5 µM 0 | LIMK1; 2.5 µM 0 | LIMK2; 2.5 µM 0 | LMTK2; 2.5 µM 0 | LYN; 2.5 µM 0 | MAP2K1; 2.5 µM 0 | MAP2K2; 2.5 µM 0 | MAP4K2; 2.5 µM 0

CC(C)[C@@](C)(O)[C@@H]1CN(c2nc(-c3[nH]nc4ncccc34)c(F)cc2Cl)CCN1
inactive: IRAK3; 10 µM 0 | JAK1; 10 µM 0 | LCK; 10 µM 0 | LIMK1; 10 µM 0 | LIMK2; 10 µM 0 | LMTK2; 10 µM 0 | LYN; 10 µM 0 | MAP2K1; 10 µM 0 | MAP2K2; 10 µM 0 | MAP4K2; 10 µM 0

CCCCCC1CC1CC1CC1CCCCCCCC(=O)OC (stereo not given)
inactive: IRAK3; 10 µM 0 | JAK1; 10 µM 0 | LCK; 10 µM 0 | LIMK1; 10 µM 0 | LIMK2; 10 µM 0 | LMTK2; 10 µM 0 | LYN; 10 µM 0 | MAP2K1; 10 µM 0 | MAP2K2; 10 µM 0 | MAP4K2; 10 µM 0

Cc1cn(-c2cc(NC(=O)c3ccc(C)c(Nc4nccc(-c5cccnc5)n4)c3)cc(C(F)(F)F)c2)cn1 [Nilotinib]
inactive: IRAK3; 2.5 µM 0 | JAK1; 2.5 µM 0 | LCK; 2.5 µM 0 | LIMK1; 2.5 µM 0 | LIMK2; 2.5 µM 0 | LMTK2; 2.5 µM 0 | LYN; 2.5 µM 0 | MAP2K1; 2.5 µM 0 | MAP2K2; 2.5 µM 0 | MAP4K2; 2.5 µM 0

C=CC(=O)N1C[C@@H](Nc2ncnc3[nH]ccc23)CC[C@H]1C [(2R,5S)-Ritlecitinib]
inactive: IRAK3; 10 µM 0 | JAK1; 10 µM 0 | LCK; 10 µM 0 | LIMK1; 10 µM 0 | LIMK2; 10 µM 0 | LMTK2; 10 µM 0 | LYN; 10 µM 0 | MAP2K1; 10 µM 0 | MAP2K2; 10 µM 0 | MAP4K2; 10 µM 0

NCCNc1ncc(C(N)=O)c(Nc2cccc(C(F)(F)F)c2)n1 [Syk Inhibitor II]
inactive: IRAK3; 10 µM 0 | JAK1; 10 µM 0 | LCK; 10 µM 0 | LIMK1; 10 µM 0 | LIMK2; 10 µM 0 | LMTK2; 10 µM 0 | LYN; 10 µM 0 | MAP2K1; 10 µM 0 | MAP2K2; 10 µM 0 | MAP4K2; 10 µM 0

COc1cc(N2CCN(C)CC2)ccc1Nc1nccc(-c2cn(C)c3cnccc23)n1
inactive: IRAK3; 10 µM 0 | JAK1; 10 µM 0 | LCK; 10 µM 0 | LIMK1; 10 µM 0 | LIMK2; 10 µM 0 | LMTK2; 10 µM 0 | LYN; 10 µM 0 | MAP2K1; 10 µM 0 | MAP2K2; 10 µM 0 | MAP4K2; 10 µM 0

C[C@H]1Oc2cc(cnc2N)-c2c(nn(C)c2C#N)CN(C)C(=O)c2ccc(F)cc21 [Lorlatinib]
inactive: IRAK3; 10 µM 0 | JAK1; 10 µM 0 | LCK; 10 µM 0 | LIMK1; 10 µM 0 | LIMK2; 10 µM 0 | LMTK2; 10 µM 0 | LYN; 10 µM 0 | MAP2K1; 10 µM 0 | MAP2K2; 10 µM 0 | MAP4K2; 10 µM 0

Ordered by count of non-hydrogen atoms (largest number first): 3 of the compounds above.
Cc1cn(-c2cc(NC(=O)c3ccc(C)c(Nc4nccc(-c5cccnc5)n4)c3)cc(C(F)(F)F)c2)cn1 [Nilotinib]
inactive: IRAK3; 2.5 µM 0 | JAK1; 2.5 µM 0 | LCK; 2.5 µM 0 | LIMK1; 2.5 µM 0 | LIMK2; 2.5 µM 0 | LMTK2; 2.5 µM 0 | LYN; 2.5 µM 0 | MAP2K1; 2.5 µM 0 | MAP2K2; 2.5 µM 0 | MAP4K2; 2.5 µM 0

CCCCCC1CC1CC1CC1CCCCCCCC(=O)OC (stereo not given)
inactive: IRAK3; 10 µM 0 | JAK1; 10 µM 0 | LCK; 10 µM 0 | LIMK1; 10 µM 0 | LIMK2; 10 µM 0 | LMTK2; 10 µM 0 | LYN; 10 µM 0 | MAP2K1; 10 µM 0 | MAP2K2; 10 µM 0 | MAP4K2; 10 µM 0

C=CC(=O)N1C[C@@H](Nc2ncnc3[nH]ccc23)CC[C@H]1C [(2R,5S)-Ritlecitinib]
inactive: IRAK3; 10 µM 0 | JAK1; 10 µM 0 | LCK; 10 µM 0 | LIMK1; 10 µM 0 | LIMK2; 10 µM 0 | LMTK2; 10 µM 0 | LYN; 10 µM 0 | MAP2K1; 10 µM 0 | MAP2K2; 10 µM 0 | MAP4K2; 10 µM 0

The listing continues:

C[C@H]1CN(C2COC2)CCN1c1ccc(Nc2cc(-c3ccnc(N4CCn5c(cc6c5CC(C)(C)C6)C4=O)c3CO)cn(C)c2=O)nc1 [Fenebrutinib]
inactive: IRAK3; 10 µM 0 | JAK1; 10 µM 0 | LCK; 10 µM 0 | LIMK1; 10 µM 0 | LIMK2; 10 µM 0 | LMTK2; 10 µM 0 | LYN; 10 µM 0 | MAP2K1; 10 µM 0 | MAP2K2; 10 µM 0 | MAP4K2; 10 µM 0

Nc1ncnc2n[nH]c(-c3ccc(Oc4ccccc4)cc3)c12 [Ibrutinib deacryloylpiperidine]
inactive: IRAK3; 10 µM 0 | JAK1; 10 µM 0 | LCK; 10 µM 0 | LIMK1; 10 µM 0 | LIMK2; 10 µM 0 | LMTK2; 10 µM 0 | LYN; 10 µM 0 | MAP2K1; 10 µM 0 | MAP2K2; 10 µM 0 | MAP4K2; 10 µM 0

Cn1cc(/C=C2\C(=O)Nc3cccnc32)c2ccccc21
inactive: IRAK3; 10 µM 0 | JAK1; 10 µM 0 | LCK; 10 µM 0 | LIMK1; 10 µM 0 | LIMK2; 10 µM 0 | LMTK2; 10 µM 0 | LYN; 10 µM 0 | MAP2K1; 10 µM 0 | MAP2K2; 10 µM 0 | MAP4K2; 10 µM 0

Nc1ncnc2c1c(-c1cnc3[nH]ccc3c1)nn2C1CCCC1
inactive: IRAK3; 2.5 µM 0 | JAK1; 2.5 µM 0 | LCK; 2.5 µM 0 | LIMK1; 2.5 µM 0 | LIMK2; 2.5 µM 0 | LMTK2; 2.5 µM 0 | LYN; 2.5 µM 0 | MAP2K1; 2.5 µM 0 | MAP2K2; 2.5 µM 0 | MAP4K2; 2.5 µM 0

COc1nccc(-c2c(-c3ccc(F)cc3)ncn2C2CCNCC2)n1
inactive: IRAK3; 10 µM 0 | JAK1; 10 µM 0 | LCK; 10 µM 0 | LIMK1; 10 µM 0 | LIMK2; 10 µM 0 | LMTK2; 10 µM 0 | LYN; 10 µM 0 | MAP2K1; 10 µM 0 | MAP2K2; 10 µM 0 | MAP4K2; 10 µM 0

COc1ccc(-c2cc(C(=O)NN=C(C)c3ccc(OC)c(OC)c3)[nH]n2)cc1
inactive: IRAK3; 10 µM 0 | JAK1; 10 µM 0 | LCK; 10 µM 0 | LIMK1; 10 µM 0 | LIMK2; 10 µM 0 | LMTK2; 10 µM 0 | LYN; 10 µM 0 | MAP2K1; 10 µM 0 | MAP2K2; 10 µM 0 | MAP4K2; 10 µM 0

Cc1ccc2c(=O)c3cccc(CC(=O)O)c3oc2c1C [Vadimezan]
inactive: IRAK3; 10 µM 0 | JAK1; 10 µM 0 | LCK; 10 µM 0 | LIMK1; 10 µM 0 | LIMK2; 10 µM 0 | LMTK2; 10 µM 0 | LYN; 10 µM 0 | MAP2K1; 10 µM 0 | MAP2K2; 10 µM 0 | MAP4K2; 10 µM 0
